Patent publication US7795267B2, “Bicyclic piperazine compound having TGR23 antagonistic activity” (Takeda Pharmaceutical Company Limited, priority 2003, dated 2010)
Counter-ions that a name gives are not always drawn. Some of these results come from one statement about several compounds together.

Legend:
TGR23-2 [1] = target: T1, TGR23-2 (Homo sapiens, UniProt Q6W5P4, N107I/Q344R); assay: Measurement of antagonist activity: inhibition of TGR23 ligand-induced increase of Ca ion concentration in CHO cells expressing human TGR23-2 (FLIPR); format: cell-based; conditions: 1 nM human TGR23 ligand, Fluo 3-AM, read-out: IC50 value, compound concentration inhibiting the increase of fluorescence intensity to 50%
T1 construct: expressed in transfected cells; host or cells: CHO cells
T1 sequence (Q6W5P4 1-371 N107I/Q344R): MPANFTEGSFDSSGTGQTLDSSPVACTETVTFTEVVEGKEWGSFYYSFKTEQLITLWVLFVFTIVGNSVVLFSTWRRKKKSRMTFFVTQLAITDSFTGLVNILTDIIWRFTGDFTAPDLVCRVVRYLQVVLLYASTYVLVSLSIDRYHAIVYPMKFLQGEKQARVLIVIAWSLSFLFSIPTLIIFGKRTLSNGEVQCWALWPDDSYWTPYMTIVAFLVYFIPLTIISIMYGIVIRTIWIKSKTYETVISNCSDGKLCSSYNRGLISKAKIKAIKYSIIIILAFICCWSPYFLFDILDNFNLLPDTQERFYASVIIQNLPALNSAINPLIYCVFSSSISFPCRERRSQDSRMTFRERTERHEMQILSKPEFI

TGR23-2 [2] = target: T1, TGR23-2; assay: Binding inhibitory test: Cy-5 labeled TGR23 ligand binding to CHO cells expressing TGR23-2 (FMAT); conditions: 1 nM Cy-5 labeled TGR23 ligand, 1 hour, read-out: IC50 value, concentration of the compound representing 50% of the binding inhibitory activity

SMILES | IC50 (TGR23-2 [1]) [nM] | IC50 (TGR23-2 [2]) [nM]
O=C(C1CCNCC1)N1CCN2C(=O)OC(c3ccccc3)(c3ccccc3)C2C1 (stereo not shown) [Example 179, Hexahydro-1,1-diphenyl-7-[(4-piperidinyl)carbonyl]-3H-oxazolo[3,4-a]pyrazin-3-one hydrochloride] | ≤ 1000 | ≤ 100
O=C(/C=C/c1ccc(F)cc1)N1CCN2C(=O)OC(c3ccccc3)(c3ccccc3)C2C1 (stereo not shown) [Example 19, (E)-7-[3-(4-Fluorophenyl)-1-oxo-2-propenyl]-hexahydro-1,1-diphenyl-3H-oxazolo[3,4-a]pyrazin-3-one] | ≤ 1000 | ≤ 100
O=C(N1CCC(N2CCCCC2)CC1)N1CCN2C(=O)OC(c3ccccc3)(c3ccccc3)C2C1 (stereo not shown) [Example 148, Hexahydro-1,1-diphenyl-7-[[4-(1-piperidinyl)-1-piperidinyl]carbonyl]-3H-oxazolo[3,4-a]pyrazin-7(1H)-3-one] | ≤ 1000 | ≤ 100
O=C(Nc1cccc2cnccc12)N1CCN2C(=O)OC(c3ccccc3)(c3ccccc3)C2C1 (stereo not shown) [Example 167, Tetrahydro-N-(isoquinolin-5-yl)-3-oxo-1,1-diphenyl-3H-oxazolo[3,4-a]pyrazine-7(1H)-carboxamide] | ≤ 1000 | ≤ 100
CN1CCC(NC(=O)N2CCN3C(=O)OC(c4ccccc4)(c4ccccc4)C3C2)CC1 (stereo not shown) [Example 176, Tetrahydro-N-(1-methyl-4-piperidinyl)-3-oxo-1,1-diphenyl-3H-oxazolo[3,4-a]pyrazine-7(1H)-carboxamide] | ≤ 1000 | ≤ 100
O=C(C=Cc1ccccc1)N1CCN2C(=O)OC(c3ccccc3)(c3ccccc3)C2C1 (stereo not shown) [Example 6, Hexahydro-7-(1-oxo-3-phenyl-2-propenyl)-1,1-diphenyl-3H-oxazolo[3,4-a]pyrazin-3-one] | ≤ 1000 | ≤ 100
CCCN1CCN(C(=O)N2CCN3C(=O)OC(c4ccccc4)(c4ccccc4)C3C2)CC1 (stereo not shown) [Example 185, Hexahydro-1,1-diphenyl-7-[(4-propyl-1-piperazinyl)carbonyl]-3H-oxazolo[3,4-a]pyrazin-3-one] | ≤ 1000 | ≤ 100
O=C(Nc1c[nH]c2ccccc12)N1CCN2C(=O)OC(c3ccccc3)(c3ccccc3)C2C1 (stereo not shown) [Example 109, Tetrahydro-N-(1H-indol-3-yl)-3-oxo-1,1-diphenyl-3H-oxazolo[3,4-a]pyrazine-7(1H)-carboxamide] | ≤ 1000 | ≤ 100
O=C(NCCN1CC=CCC1)N1CCN2C(=O)OC(c3ccccc3)(c3ccccc3)C2C1 (stereo not shown) [Example 85, N-[2-(3,6-Dihydropyridin-1(2H)-yl)ethyl]-tetrahydro-3-oxo-1,1-diphenyl-3H-oxazolo[3,4-a]pyrazine-7(1H)-carboxamide] | ≤ 1000 | ≤ 100
CC(C)N1CCC(C(=O)N2CCN3C(=O)OC(c4ccccc4)(c4ccccc4)C3C2)CC1 (stereo not shown) [Example 180, Hexahydro-7-[[1-(1-methylethyl)-4-piperidinyl]carbonyl]-1,1-diphenyl-3H-oxazolo[3,4-a]pyrazin-3-one] | ≤ 1000 | ≤ 100
O=C(NCCN1CCCCCC1)N1CCN2C(=O)OC(c3ccccc3)(c3ccccc3)C2C1 (stereo not shown) [Example 147, N-[2-(Hexahydro-1H-azepin-1-yl)ethyl]tetrahydro-3-oxo-1,1-diphenyl-3H-oxazolo[3,4-a]pyrazine-7(1H)-carboxamide] | ≤ 1000 | ≤ 100
O=C(Nc1ccc2[nH]ccc2c1)N1CCN2C(=O)OC(c3ccccc3)(c3ccccc3)C2C1 (stereo not shown) [Example 115, Tetrahydro-N-(1H-indole-5-yl)-3-oxo-1,1-diphenyl-3H-oxazolo[3,4-a]pyrazine-7(1H)-carboxamide] | ≤ 1000 | ≤ 100
O=C(Nc1ccc(F)cc1F)N1CCN2C(=O)OC(c3ccccc3)(c3ccccc3)C2C1 (stereo not shown) [Example 47, N-(2,4-Difluorophenyl)-tetrahydro-3-oxo-1,1-diphenyl-3H-oxazolo[3,4-a]pyrazine-7(1H)-carboxamide] | ≤ 1000 | ≤ 100
CCN(CCNC(=O)N1CCN2C(=O)OC(c3ccccc3)(c3ccccc3)C2C1)C1CC1 (stereo not shown) [Example 174, N-[2-[Cyclopropyl(ethyl)amino]ethyl]-tetrahydro-3-oxo-1,1-diphenyl-3H-oxazolo[3,4-a]pyrazine-7(1H)-carboxamide hydrochloride] | ≤ 1000 | ≤ 100
O=C(Nc1cccc2[nH]ccc12)N1CCN2C(=O)OC(c3ccccc3)(c3ccccc3)C2C1 (stereo not shown) [Example 114, Tetrahydro-N-(1H-indol-4-yl)-3-oxo-1,1-diphenyl-3H-oxazolo[3,4-a]pyrazine-7(1H)-carboxamide] | ≤ 1000 | ≤ 100
O=C(Oc1ccccc1)N1CCN2C(=O)OC(c3ccccc3)(c3ccccc3)C2C1 (stereo not shown) [Example 2, Phenyl tetrahydro-3-oxo-1,1-diphenyl-3H-oxazolo[3,4-a]pyrazine-7(1H)-carboxylate] | ≤ 1000 | ≤ 100
O=C(NC(=O)N1CCN2C(=O)OC(c3ccccc3)(c3ccccc3)C2C1)c1ccccc1 (stereo not shown) [Example 59, N-Benzoyl-tetrahydro-3-oxo-1,1-diphenyl-3H-oxazolo[3,4-a]pyrazine-7(1H)-carboxamide] | ≤ 1000 | ≤ 100
C=CCN(CCNC(=O)N1CCN2C(=O)OC(c3ccccc3)(c3ccccc3)C2C1)S(=O)(=O)c1ccccc1[N+](=O)[O-] (stereo not shown) [Example 173, Tetrahydro-N-[2-[[(2-nitrophenyl)sulfonyl](2-propenyl)amino]ethyl]-3-oxo-1,1-diphenyl-3H-oxazolo[3,4-a]pyrazine-7(1H)-carboxamide] | ≤ 1000 | ≤ 100
O=C(NC1CCc2ccccc21)N1CCN2C(=O)OC(c3ccccc3)(c3ccccc3)C2C1 (stereo not shown) [Example 43, N-(2,3-Dihydro-1H-inden-1-yl)-tetrahydro-3-oxo-1,1-diphenyl-3H-oxazolo[3,4-a]pyrazine-7(1H)-carboxamide] | ≤ 1000 | ≤ 100
O=C(Oc1ccccc1)N1CCN2C(=O)OC(c3cccc(F)c3)(c3cccc(F)c3)C2C1 (stereo not shown) [Example 197, Phenyl 1,1-bis(3-fluorophenyl)-tetrahydro-3-oxo-3H-oxazolo[3,4-a]pyrazine-7(1H)-carboxylate] | ≤ 1000 | ≤ 100
CC1CCN(CCNC(=O)N2CCN3C(=O)OC(c4ccccc4)(c4ccccc4)C3C2)CC1 (stereo not shown) [Example 84, Tetrahydro-N-[2-(4-methyl-1-piperidinyl)ethyl]-3-oxo-1,1-diphenyl-3H-oxazolo[3,4-a]pyrazine-7(1H)-carboxamide] | ≤ 1000 | ≤ 100
O=C(CCCN1CCOCC1)N1CCN2C(=O)OC(c3ccccc3)(c3ccccc3)C2C1 (stereo not shown) [Example 126, Hexahydro-7-[4-(4-morpholinyl)-1-oxobutyl]-1,1-diphenyl-3H-oxazolo[3,4-a]pyrazin-7(1H)-3-one] | ≤ 1000 | ≤ 100
O=C(CCCN1CC=CCC1)N1CCN2C(=O)OC(c3ccccc3)(c3ccccc3)C2C1 (stereo not shown) [Example 138, 7-[4-(3,6-Dihydropyridin-1(2H)-yl)-1-oxobutyl]-hexahydro-1,1-diphenyl-3H-oxazolo[3,4-a]pyrazin-7(1H)-3-one] | ≤ 1000 | ≤ 100
O=C(Nc1ccc(F)cc1)N1CCN2C(=O)OC(c3cccc(F)c3)(c3cccc(F)c3)C2C1 (stereo not shown) [Example 198, 1,1-Bis(3-fluorophenyl)-N-(4-fluorophenyl)-tetrahydro-3-oxo-3H-oxazolo[3,4-a]pyrazine-7(1H)-carboxamide] | ≤ 1000 | ≤ 100
CCCN1CCC(NC(=O)N2CCN3C(=O)OC(c4ccccc4)(c4ccccc4)C3C2)CC1 (stereo not shown) [Example 178, Tetrahydro-3-oxo-1,1-diphenyl-N-(1-propyl-4-piperidinyl)-3H-oxazolo[3,4-a]pyrazine-7(1H)-carboxamide] | ≤ 1000 | ≤ 100
O=C(NNc1ccccc1)N1CCN2C(=O)OC(c3ccccc3)(c3ccccc3)C2C1 (stereo not shown) [Example 10, Tetrahydro-3-oxo-1,1-diphenyl-3H-oxazolo[3,4-a]pyrazine-7(1H)-carboxylic acid 2-phenylhydrazide] | ≤ 1000 | ≤ 100
